The list is a part of this screen's results and no random one: it gathers tests that were run many times, whatever their T/C, doses with no T/C, and many T/C values between a quarter and a half above the control. Other doses and runs of a compound stand elsewhere. T/C: endpoint of the treated group in % of that of the vehicle group. Schedules are NCI's codes, taken here to give the interval after Q, in days (D) or hours (H), and the number of doses after X. Some T/C values are followed by the survivors on the day toxicity was checked, most often the fifth; without a count, all were alive then. Some entries give survivors of the animals treated and no T/C: the source files T/C as zero there, which appears to mark a toxic dose or a test without result, not a measured value. Survivors were counted at the toxicity check, usually on the fifth day, unless a day is given; later deaths do not show. Some entries hold several experiments; the values are given in rising order.
System: BDF1 mice, colon carcinoma 38 sc, T/C %
Experiment: NCI In Vivo Anticancer Drug Screen. Data for tumor model Colon Carcinoma 38 (subcutaneous) in B6D2F1 (BDF1) mice
Conditions: T/C endpoint: median tumor weight (est.), schedule: Q07DX002 (ip), higher T/C = larger tumour; for T/C: evaluated on day 20
Method in brief: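 Ratio of survival or tumor size, compound-treated animals relative to vehicle controls, in tumor-bearing mice.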

[1] = dose: 50.0 mg/kg/injection, vehicle: saline with Tween-80
[2] = dose: 100.0 mg/kg/injection, vehicle: saline with Tween-80
[3] = dose: 200.0 mg/kg/injection, vehicle: saline with Tween-80
[4] = dose: 800.0 mg/kg/injection, vehicle: saline with Tween-80
[5] = dose: 6.25 mg/kg/injection, vehicle: Klucel (hydroxypropylcellulose) (HPC)
[6] = dose: 12.5 mg/kg/injection, vehicle: Klucel (hydroxypropylcellulose) (HPC)
[7] = dose: 50.0 mg/kg/injection, vehicle: Klucel (hydroxypropylcellulose) (HPC)
[8] = dose: 100.0 mg/kg/injection, vehicle: Klucel (hydroxypropylcellulose) (HPC)
[9] = dose: 400.0 mg/kg/injection, vehicle: saline with Tween-80

For O=C1c2cccc3cc([N+](=O)[O-])cc(c23)C(=O)N1CCN1CCCC1, the survivor count [1] was 0 of 10 on day 20 and the survivor count [2] was 0 of 10 on day 20.
With C[Si](C)(CCl)N[Si](C)(C)CCl the T/C [3] was 139 % of control and the survivor count [4] was 1 of 10 on day 20.
O=C(O)C1CC1.[Ag] was tested, and the T/C (dose: 12.5 mg/kg/injection, vehicle: distilled water + Tween-80) was 129 % of control, the survivor count (dose: 25.0 mg/kg/injection, vehicle: water) was 5 of 10 on day 20 and the survivor count (dose: 50.0 mg/kg/injection, vehicle: distilled water + Tween-80) was 0 of 10 on day 20. The survivor count (dose: 50.0 mg/kg/injection, vehicle: water) was 1 of 10 on day 20, the survivor count (dose: 100.0 mg/kg/injection, vehicle: distilled water + Tween-80) was 0 of 10 on day 20 and the survivor count (dose: 100.0 mg/kg/injection, vehicle: water) was 0 of 10 on day 20. The survivor count (dose: 200.0 mg/kg/injection, vehicle: distilled water + Tween-80) was 0 of 10 on day 20 and the survivor count (dose: 200.0 mg/kg/injection, vehicle: water) was 0 of 10 on day 20.
In the case of CCCCCn1c(C)cc(/C=C\c2ccc3cc(C)ccc3[n+]2C)c1C, the survivor count (dose: 1.25 mg/kg/injection, vehicle: Klucel (hydroxypropylcellulose) (HPC)) is reported as 6 of 10 on day 20, the survivor count (dose: 2.5 mg/kg/injection, vehicle: Klucel (hydroxypropylcellulose) (HPC)) is reported as 0 of 10 on day 20 and 3 of 10 on day 20 and the survivor count (dose: 5.0 mg/kg/injection, vehicle: Klucel (hydroxypropylcellulose) (HPC)) is reported as 0 of 10 on day 20 and 5 of 10 on day 20. For the same compound, the survivor count (dose: 10.0 mg/kg/injection, vehicle: Klucel (hydroxypropylcellulose) (HPC)) was 0 of 10 on day 20, the survivor count (dose: 20.0 mg/kg/injection, vehicle: Klucel (hydroxypropylcellulose) (HPC)) was 0 of 10 on day 20 and the T/C (dose: 300.0 micrograms/kg/injection, vehicle: Klucel (hydroxypropylcellulose) (HPC)) was 138 % of control. The survivor count (dose: 1200.0 micrograms/kg/injection, vehicle: Klucel (hydroxypropylcellulose) (HPC)) was 2 of 10 on day 20.
In the case of BrC[P+](CBr)(CBr)CBr, the T/C [1] is reported as 134 % of control and the survivor count [3] is reported as 3 of 10 on day 20.
With CCCCCC[Se][Se]CCCCCC the T/C [5] was 129 % of control, the T/C [6] was 129 % of control and the T/C [7] was 144 % of control [9 of 10 alive on day 20]. For the same compound, the survivor count [8] was 0 of 10 on day 20.
With NC(=O)c1ncn(C2OC(CO)C(O)C2O)c1O (stereo unspecified) the T/C [7] was 125 % of control.
In the case of NC(=O)c1cn(C2OC(CO)C(O)C2O)c2ncnc(N)c12 (stereo unspecified), the survivor count (dose: 8.0 mg/kg/injection, vehicle: saline with Tween-80) is reported as 1 of 10 on day 20, the survivor count (dose: 16.0 mg/kg/injection, vehicle: saline with Tween-80) is reported as 0 of 10 on day 20 and the survivor count (dose: 16.0 mg/kg/injection, vehicle: suspension in saline) is reported as 0 of 10 on day 20.
In the case of O=NN(CCCl)C(=O)NC1[C@H](O)CCC[C@@H]1O (stereo partly specified), the T/C (dose: 2.5 mg/kg/injection, vehicle: saline) is reported as 135 % of control, the survivor count (dose: 20.0 mg/kg/injection, vehicle: saline) is reported as 2 of 10 on day 20 and 3 of 10 on day 20 and the survivor count (dose: 40.0 mg/kg/injection, vehicle: saline) is reported as 0 of 10 on day 20.
CNC(=O)O/N=C(\CN=[N+]=[N-])C(C)(C)C was tested, and the T/C (dose: 0.5 mg/kg/injection, vehicle: saline) was 136 % of control, the survivor count (dose: 2.0 mg/kg/injection, vehicle: saline) was 0 of 10 on day 20 and the survivor count (dose: 4.0 mg/kg/injection, vehicle: saline) was 0 of 10 on day 20. The survivor count (dose: 8.0 mg/kg/injection, vehicle: saline) was 0 of 10 on day 20.
In the case of O=C1NC(O)c2ccccc2O1 (stereo unspecified), the survivor count [4] is reported as 2 of 10 on day 20.
With O=C(O)CC(NC(=O)CP(=O)(O)O)C(=O)O.[NH-]C1CCCCC1[NH-].[Pt+2] (stereo unspecified) the survivor count (dose: 50.0 mg/kg/injection, vehicle: dextrose) was 3 of 10 on day 20.
O=C[C@@H](CO)O[C@H](C=O)c1c[nH]c(=O)[nH]c1=O was tested, and the T/C (dose: 25.0 mg/kg/injection, vehicle: saline) was 142 % of control.
CCn1cnc2c(=S)nc[nH]c21 was tested, and the survivor count [9] was 6 of 10 on day 20.
With CC(C)[C@]12O[C@H]1[C@@H]1O[C@]13[C@]1(O[C@H]1C[C@H]1C4=C(C(=O)OC4)[C@@H](O)C[C@@]13C)[C@@H]2O the T/C (dose: 50.0 micrograms/kg/injection, vehicle: saline + alcohol) was 129 % of control [8 of 10 alive on day 20] and the survivor count (dose: 800.0 micrograms/kg/injection, vehicle: saline + alcohol) was 4 of 10 on day 20.
For C[C@H](CCC[C@H](C)OS(=O)(=O)c1ccccc1)OS(=O)(=O)c1ccccc1, the T/C [2] was 129 % of control [9 of 10 alive on day 20], the survivor count [9] was 0 of 10 on day 20 and the survivor count [4] was 0 of 10 on day 20.
For CN=S(=O)(OCCCCCOS(=O)(=NC)c1ccccc1)c1ccccc1 (stereo unspecified), the T/C [2] was 145 % of control and the survivor count [9] was 5 of 10 on day 20.
CC1(c2ccc(Cl)cc2)OC(=O)C(=Cc2ccc([N+](=O)[O-])s2)C(=O)O1 (stereo unspecified) was tested, and the survivor count [9] was 2 of 10 on day 20.
For Cc1ccc(Cl)c2ccccc12, the T/C (dose: 25.0 mg/kg/injection, vehicle: saline with Tween-80) was 128 % of control and the survivor count [9] was 1 of 10 on day 20.
With COc1ccc2[nH]c3ccc4cc[n+](CCN5CCC(C6CCN(CC[n+]7ccc8ccc9[nH]c%10ccc(OC)cc%10c9c8c7)CC6)CC5)cc4c3c2c1 the survivor count (dose: 200.0 mg/kg/injection, vehicle: Klucel (hydroxypropylcellulose) (HPC)) was 1 of 10 on day 20 and the survivor count (dose: 400.0 mg/kg/injection, vehicle: Klucel (hydroxypropylcellulose) (HPC)) was 0 of 10 on day 20.
In the case of C[N+](C)(C)c1cc2c(nn1)Nc1ccccc1S2, the T/C [5] is reported as 143 % of control [9 of 10 alive], the T/C [6] is reported as 129 % of control and the T/C [7] is reported as 125 % of control. For the same compound, the T/C [8] was 132 % of control.

— PubChem BioAssay AID212 (DTP/NCI, 2004)
